Experimental data from patent US20180256746A1, “IMMEDIATE RELEASE CLINDAMYCIN DELIVERY COMPOSITION AND FORMULATION” (Iono Pharma, LLC, priority 2017, published 2018).
Structures can show the parent of a compound that is named as a salt.

Conditions: one month at 25° C. and 40° C.

stability in the presence of excipients (no resin) (75 mg clindamycin HCl in 5 ml DI water with suspension excipients): no degradation | stability profile in DI water (75 mg clindamycin HCl in 5 ml DI water): no degradation
SMILES: CCC[C@@H]1C[C@@H](C(=O)N[C@@H]([C@H]2O[C@H](SC)[C@H](O)[C@@H](O)[C@H]2O)[C@H](C)Cl)N(C)C1 [clindamycin, clindamycin hydrochloride]
